# Results are given in words; binding and its absence hold for the method and conditions named. Some results given as binding are weak or reduced against the parent protein; the word gives no strength. For some of these results: Where a sequence is shown, tags or fusion partners need not be part of it.
# T1: soluble TL1A-SH6 protein (his tagged) (Homo sapiens (Human)) (UniProt O95150)
# T1 sequence: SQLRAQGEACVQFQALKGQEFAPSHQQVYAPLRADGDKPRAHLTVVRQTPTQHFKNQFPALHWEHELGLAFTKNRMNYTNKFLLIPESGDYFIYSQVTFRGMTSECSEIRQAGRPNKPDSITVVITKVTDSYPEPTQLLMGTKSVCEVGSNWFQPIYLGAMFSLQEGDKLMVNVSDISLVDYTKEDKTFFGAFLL
# T2: TL1A expressed on transfected CHO cells (Homo sapiens (Human)) (UniProt O95150)
# T2 sequence: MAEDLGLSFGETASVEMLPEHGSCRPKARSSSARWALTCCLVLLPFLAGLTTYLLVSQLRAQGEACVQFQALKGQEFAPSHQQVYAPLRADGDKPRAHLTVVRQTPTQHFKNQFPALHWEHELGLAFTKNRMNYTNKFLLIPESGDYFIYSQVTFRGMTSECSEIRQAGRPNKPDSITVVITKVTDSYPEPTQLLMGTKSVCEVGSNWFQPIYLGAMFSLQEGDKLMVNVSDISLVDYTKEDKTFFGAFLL
# T3: recombinant full length human TL1A trimer (human) (UniProt O95150)
# T3 sequence: T1 sequence
# B1: monoclonal antibody 10A4.F7 (antibody, V domains shown)
# VH: QLQLQESGPGLVKPSETLSLTCTVSGGSISSRSYYWGWIRQPPGKGLEWIGSIYYNGRTYYNPSLKSRVTISVDTSKNQFSLKLSSVTAADTAVYYCAREDYGDYGAFDIWGQGTMVTVSS
# VL: AIQLTQSPSSLSASVGDRVTITCRASQGISSALAWYQQKPGKAPKLLIYDASSLESGVPSRFSGSGSGTDFTLTISSLQPEDFATYYCQQFNSYPLTFGGGTKVEIK
# notes: Hybridoma subclone of parental clone 10A4 (KM mouse, human IgG kappa); also called TL1A 2596.10A4.F7
# B2: anti-TL1A mAb (10A4) (antibody, V domains shown)
# VH: B1 VH
# VL: B1 VL
# B3: 10A4 Fab (Fab, V domains shown)
# VH: B1 VH
# VL: B1 VL
# Key:
# [1] = molecular target: T1, soluble TL1A-SH6 protein (his tagged) (Homo sapiens (Human)); experiment: FACS, inhibition of the binding of TL1A SH6 (200 ng/ml) to hDR3 CHO cells, detection with PE anti-6xHis
# [2] = molecular target: T2, TL1A expressed on transfected CHO cells (Homo sapiens (Human)); experiment: FACS titration on TL1A CHO cells, detection with PE anti-human IgG (Fc specific)
# [3] = molecular target: T3, recombinant full length human TL1A trimer (human); experiment: HDX-MS of TL1A trimer with 10A4 mAb
# [4] = molecular target: T3, recombinant full length human TL1A trimer (human); experiment: HDX-MS of TL1A trimer with 10A4 Fab
binder,measurement,setting,value
B1,binding,[1],binds
same,binding,[2],binds
B2,binding,[3],binds
B3,binding,[4],binds

# Reference: patent US20190135928A1 (Bristol-Myers Squibb, published 2019)
